Laboratory results as given in the supplement of paper PMC10849652.
The other results are listed elsewhere or left out.

The chains behind the UniProt entries cited, without tags or fusion partners. Where a name states a change or a piece, a line headed by the entry shows the natural chain unless it says otherwise.
UniProt Q9UKE5: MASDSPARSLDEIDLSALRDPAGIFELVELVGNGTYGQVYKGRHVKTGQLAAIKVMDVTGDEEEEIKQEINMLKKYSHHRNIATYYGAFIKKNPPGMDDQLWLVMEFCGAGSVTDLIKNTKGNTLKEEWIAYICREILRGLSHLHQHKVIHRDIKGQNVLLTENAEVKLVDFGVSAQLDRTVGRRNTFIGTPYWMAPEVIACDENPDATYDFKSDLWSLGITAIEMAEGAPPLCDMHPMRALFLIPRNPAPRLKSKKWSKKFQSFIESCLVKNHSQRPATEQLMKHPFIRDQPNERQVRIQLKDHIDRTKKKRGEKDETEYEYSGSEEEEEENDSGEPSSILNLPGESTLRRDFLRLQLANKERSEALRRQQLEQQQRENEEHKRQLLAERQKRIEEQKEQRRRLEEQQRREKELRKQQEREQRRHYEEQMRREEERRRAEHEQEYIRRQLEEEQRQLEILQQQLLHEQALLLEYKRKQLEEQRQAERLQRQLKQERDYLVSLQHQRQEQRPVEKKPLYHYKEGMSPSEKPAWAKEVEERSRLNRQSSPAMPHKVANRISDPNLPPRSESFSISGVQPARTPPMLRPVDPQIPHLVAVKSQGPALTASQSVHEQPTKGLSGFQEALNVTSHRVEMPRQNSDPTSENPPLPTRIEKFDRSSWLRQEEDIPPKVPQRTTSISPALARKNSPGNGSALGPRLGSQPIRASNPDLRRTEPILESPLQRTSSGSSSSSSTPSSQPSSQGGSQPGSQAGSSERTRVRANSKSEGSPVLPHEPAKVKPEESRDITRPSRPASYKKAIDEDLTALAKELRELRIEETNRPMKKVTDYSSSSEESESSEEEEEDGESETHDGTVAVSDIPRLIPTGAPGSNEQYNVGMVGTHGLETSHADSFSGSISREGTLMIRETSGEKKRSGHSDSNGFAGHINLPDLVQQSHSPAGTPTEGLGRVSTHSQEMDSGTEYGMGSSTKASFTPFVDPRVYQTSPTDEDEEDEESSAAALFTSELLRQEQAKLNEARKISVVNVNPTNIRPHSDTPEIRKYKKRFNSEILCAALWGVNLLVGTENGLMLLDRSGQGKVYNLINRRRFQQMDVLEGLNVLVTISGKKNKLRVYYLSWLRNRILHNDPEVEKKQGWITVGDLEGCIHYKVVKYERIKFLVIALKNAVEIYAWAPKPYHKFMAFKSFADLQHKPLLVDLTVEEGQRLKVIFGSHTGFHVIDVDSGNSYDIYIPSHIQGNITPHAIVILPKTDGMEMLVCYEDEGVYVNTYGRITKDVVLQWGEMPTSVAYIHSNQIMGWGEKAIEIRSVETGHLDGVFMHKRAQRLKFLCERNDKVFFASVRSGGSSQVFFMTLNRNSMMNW
UniProt Q14669: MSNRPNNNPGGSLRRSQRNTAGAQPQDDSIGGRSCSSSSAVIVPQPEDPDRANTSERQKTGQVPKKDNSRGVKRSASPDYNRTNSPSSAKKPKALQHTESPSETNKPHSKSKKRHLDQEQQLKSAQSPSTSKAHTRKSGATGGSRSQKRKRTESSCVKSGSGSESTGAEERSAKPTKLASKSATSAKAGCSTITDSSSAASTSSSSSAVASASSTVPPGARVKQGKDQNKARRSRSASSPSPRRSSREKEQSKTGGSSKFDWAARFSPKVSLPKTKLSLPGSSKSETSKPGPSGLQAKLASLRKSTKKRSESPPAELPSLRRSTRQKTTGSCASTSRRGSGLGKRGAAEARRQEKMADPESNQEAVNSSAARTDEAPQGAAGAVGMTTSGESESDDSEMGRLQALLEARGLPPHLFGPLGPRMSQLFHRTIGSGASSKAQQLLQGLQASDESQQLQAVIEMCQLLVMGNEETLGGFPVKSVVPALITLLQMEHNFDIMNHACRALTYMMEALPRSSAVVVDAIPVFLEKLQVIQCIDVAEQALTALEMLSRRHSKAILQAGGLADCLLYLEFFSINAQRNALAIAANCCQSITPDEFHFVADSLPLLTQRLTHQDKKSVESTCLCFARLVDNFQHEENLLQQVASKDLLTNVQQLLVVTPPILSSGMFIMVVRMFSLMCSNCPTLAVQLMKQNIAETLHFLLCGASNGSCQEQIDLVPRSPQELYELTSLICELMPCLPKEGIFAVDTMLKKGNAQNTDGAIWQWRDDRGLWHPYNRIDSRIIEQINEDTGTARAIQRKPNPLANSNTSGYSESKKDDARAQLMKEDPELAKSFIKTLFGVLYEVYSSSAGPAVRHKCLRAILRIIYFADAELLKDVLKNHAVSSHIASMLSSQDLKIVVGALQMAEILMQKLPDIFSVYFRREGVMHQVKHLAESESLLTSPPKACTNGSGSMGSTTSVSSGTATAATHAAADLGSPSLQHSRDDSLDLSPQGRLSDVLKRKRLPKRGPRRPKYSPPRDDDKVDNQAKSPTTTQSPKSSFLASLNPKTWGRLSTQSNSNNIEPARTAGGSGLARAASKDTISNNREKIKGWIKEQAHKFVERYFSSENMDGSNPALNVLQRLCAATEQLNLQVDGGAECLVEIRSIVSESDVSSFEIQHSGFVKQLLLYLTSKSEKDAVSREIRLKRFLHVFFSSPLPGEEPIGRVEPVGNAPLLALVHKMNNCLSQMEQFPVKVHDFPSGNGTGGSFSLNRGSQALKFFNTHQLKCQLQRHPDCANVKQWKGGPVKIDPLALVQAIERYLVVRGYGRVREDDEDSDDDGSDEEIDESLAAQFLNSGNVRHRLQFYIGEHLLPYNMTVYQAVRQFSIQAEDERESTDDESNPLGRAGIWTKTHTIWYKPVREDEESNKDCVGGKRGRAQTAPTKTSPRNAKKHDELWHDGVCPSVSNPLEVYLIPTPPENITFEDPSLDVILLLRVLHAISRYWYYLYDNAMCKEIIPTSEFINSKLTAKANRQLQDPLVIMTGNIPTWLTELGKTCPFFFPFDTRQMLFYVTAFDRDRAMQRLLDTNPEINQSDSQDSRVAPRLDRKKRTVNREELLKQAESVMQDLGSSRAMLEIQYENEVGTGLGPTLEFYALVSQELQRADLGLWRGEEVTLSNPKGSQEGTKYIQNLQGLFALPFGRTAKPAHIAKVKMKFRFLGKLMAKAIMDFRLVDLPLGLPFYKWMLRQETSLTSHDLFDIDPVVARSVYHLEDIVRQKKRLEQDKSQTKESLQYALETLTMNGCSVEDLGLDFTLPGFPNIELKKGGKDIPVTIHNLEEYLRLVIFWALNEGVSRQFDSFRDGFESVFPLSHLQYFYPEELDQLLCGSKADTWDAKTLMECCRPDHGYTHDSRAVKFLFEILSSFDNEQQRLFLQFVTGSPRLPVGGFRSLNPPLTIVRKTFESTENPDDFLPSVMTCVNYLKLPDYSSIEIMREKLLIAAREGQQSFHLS
UniProt Q32P41: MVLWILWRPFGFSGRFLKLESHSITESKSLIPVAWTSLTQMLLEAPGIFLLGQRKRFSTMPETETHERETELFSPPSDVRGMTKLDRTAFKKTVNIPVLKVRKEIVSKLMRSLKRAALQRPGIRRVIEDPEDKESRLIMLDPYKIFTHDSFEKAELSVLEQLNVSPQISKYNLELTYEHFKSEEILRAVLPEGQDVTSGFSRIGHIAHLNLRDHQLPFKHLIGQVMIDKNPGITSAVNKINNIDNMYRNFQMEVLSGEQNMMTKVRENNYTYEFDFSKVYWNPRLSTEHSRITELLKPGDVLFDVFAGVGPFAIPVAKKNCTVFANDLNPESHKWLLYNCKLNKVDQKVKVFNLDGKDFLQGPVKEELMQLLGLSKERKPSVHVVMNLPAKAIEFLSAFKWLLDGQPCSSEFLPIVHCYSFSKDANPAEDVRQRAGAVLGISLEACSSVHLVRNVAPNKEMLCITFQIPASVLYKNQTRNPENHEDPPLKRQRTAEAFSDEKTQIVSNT
UniProt Q96GJ1: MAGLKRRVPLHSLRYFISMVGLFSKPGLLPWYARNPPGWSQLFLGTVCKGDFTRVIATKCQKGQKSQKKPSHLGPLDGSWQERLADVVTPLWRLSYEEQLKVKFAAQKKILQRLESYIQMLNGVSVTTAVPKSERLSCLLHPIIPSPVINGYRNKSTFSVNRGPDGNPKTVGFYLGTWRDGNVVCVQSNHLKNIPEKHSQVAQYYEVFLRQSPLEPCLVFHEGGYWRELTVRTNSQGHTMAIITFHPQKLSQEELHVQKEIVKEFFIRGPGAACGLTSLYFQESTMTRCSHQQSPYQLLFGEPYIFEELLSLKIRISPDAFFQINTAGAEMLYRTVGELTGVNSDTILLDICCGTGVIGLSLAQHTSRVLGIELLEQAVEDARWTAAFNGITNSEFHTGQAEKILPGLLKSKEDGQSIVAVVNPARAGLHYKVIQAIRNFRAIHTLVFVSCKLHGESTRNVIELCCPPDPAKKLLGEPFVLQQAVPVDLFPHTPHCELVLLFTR
UniProt Q8TDR0: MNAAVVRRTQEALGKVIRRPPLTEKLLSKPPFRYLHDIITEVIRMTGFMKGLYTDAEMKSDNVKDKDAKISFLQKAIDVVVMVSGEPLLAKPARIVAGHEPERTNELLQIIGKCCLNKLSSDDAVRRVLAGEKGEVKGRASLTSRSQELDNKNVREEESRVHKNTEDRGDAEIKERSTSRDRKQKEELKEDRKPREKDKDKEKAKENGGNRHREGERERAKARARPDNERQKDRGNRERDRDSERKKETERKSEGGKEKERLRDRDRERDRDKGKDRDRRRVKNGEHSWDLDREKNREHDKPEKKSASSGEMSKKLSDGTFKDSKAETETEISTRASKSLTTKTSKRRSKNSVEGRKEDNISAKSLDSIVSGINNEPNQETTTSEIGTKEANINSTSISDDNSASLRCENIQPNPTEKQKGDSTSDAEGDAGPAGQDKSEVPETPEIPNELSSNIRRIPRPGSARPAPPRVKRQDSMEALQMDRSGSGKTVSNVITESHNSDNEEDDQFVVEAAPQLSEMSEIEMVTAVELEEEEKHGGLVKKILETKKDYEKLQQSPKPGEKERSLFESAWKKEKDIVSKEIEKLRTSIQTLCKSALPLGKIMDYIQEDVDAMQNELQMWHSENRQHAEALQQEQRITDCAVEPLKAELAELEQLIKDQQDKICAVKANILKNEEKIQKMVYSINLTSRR
UniProt Q6PJ69: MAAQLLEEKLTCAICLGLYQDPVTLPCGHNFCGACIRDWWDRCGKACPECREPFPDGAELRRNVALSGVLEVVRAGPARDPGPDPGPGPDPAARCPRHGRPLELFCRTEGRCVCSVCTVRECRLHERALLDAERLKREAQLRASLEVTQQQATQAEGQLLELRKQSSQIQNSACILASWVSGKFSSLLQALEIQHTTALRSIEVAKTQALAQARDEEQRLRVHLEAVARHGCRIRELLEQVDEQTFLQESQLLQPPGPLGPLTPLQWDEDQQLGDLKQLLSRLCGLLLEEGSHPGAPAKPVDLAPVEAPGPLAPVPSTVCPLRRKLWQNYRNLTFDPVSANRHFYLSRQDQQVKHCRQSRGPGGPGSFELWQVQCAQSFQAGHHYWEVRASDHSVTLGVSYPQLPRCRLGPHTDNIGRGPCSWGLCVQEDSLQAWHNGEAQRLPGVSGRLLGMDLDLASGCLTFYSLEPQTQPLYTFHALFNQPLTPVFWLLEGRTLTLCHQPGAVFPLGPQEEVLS
UniProt Q15628: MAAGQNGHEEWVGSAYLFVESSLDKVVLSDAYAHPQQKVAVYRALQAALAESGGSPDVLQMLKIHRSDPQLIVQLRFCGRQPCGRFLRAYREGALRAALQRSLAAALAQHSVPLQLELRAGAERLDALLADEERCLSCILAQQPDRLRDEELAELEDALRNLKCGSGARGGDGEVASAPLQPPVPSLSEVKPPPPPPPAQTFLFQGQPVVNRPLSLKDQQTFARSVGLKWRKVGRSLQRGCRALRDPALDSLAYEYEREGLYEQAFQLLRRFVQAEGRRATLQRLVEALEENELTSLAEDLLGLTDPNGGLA
UniProt P55327: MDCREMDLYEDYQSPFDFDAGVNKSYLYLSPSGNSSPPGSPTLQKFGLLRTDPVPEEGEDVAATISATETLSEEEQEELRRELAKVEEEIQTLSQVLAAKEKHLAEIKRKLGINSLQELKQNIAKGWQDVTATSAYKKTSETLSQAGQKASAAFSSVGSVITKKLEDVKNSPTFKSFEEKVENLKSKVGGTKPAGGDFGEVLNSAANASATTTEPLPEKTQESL
UniProt Q9H3H1: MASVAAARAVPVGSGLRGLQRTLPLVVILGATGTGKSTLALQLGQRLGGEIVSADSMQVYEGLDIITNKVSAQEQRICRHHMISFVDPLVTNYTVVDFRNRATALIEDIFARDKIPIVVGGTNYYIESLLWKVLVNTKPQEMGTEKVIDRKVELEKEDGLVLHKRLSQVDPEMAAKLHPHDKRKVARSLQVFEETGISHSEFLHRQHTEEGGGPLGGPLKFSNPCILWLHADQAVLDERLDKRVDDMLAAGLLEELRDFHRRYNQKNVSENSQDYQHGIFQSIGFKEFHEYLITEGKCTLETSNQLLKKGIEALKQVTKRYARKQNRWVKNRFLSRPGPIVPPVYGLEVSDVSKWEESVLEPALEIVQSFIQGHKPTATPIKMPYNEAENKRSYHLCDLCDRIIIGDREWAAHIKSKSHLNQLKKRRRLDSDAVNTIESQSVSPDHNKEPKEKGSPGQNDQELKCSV

compound: Cc1cc(Nc2cc(CN3CCOCC3)c3nc(C)c(Cc4ccc(Cl)cc4F)n3n2)n[nH]1 [gandotinib]; experiment: log2 fold change, soluble protein after heating vs DMSO (PISA); higher = thermal stabilisation; K562 cells, 10 uM, 30 min; active = over 0.2 and 3.5 SD of the protein, either way, in both replicates (recomputed)
How it was run: (§1)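 For each measurement, 10 μM compound was applied for 30 min to K562 cells at 2×10^6 cells/mL. Aliquots were heated for 3 min across 48°C-58°C, pooled, and extracted in PBS with 0.5% NP-40 at 4°C; the supernatant after 21,000xg for 90 min was soluble protein. This was quantified by TMTpro 16plex LC-MS/MS with channel sums equalised, and thermal stability was reported relative to control samples from duplicates, on a log2 fold-change scale.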

Target | log2 fold change
TNIK isoform 3 (UniProt Q9UKE5) | inactive: 0.027
TRIP12 isoform 3 (UniProt Q14669) | inactive: -0.097
TPD52L2 isoform 3 (UniProt O43399) | inactive: -0.041
TROAP (UniProt Q12815) | inactive: -0.019
TRMT5 (UniProt Q32P41) | inactive: -0.256
TRAPPC2 isoform 3 (UniProt P0DI81) | inactive: 0.04
TPRA1 (UniProt Q86W33) | inactive: 0.137
TRMT2B (UniProt Q96GJ1) | inactive: 0.014
TRIM27 (UniProt P14373) | inactive: 0.053

compound: Cc1cc(Nc2cc(N3CCN(C)CC3)nc(Sc3ccc(NC(=O)C4CC4)cc3)n2)n[nH]1 [tozasertib]; experiment: as above
How it was run: as §1

Target | log2 fold change
TSC1 (UniProt Q92574) | inactive: -0.109
TRIM21 (UniProt P19474) | inactive: -0.14
TRAM2 (UniProt Q15035) | inactive: -0.013
TNIK isoform 3 (UniProt Q9UKE5) | inactive: -0.051
TPRG1L (UniProt Q5T0D9) | inactive: -0.252
TNIP1 (UniProt Q15025) | inactive: 0.078
TRA2A (UniProt Q13595) | inactive: -0.113
TRIP12 isoform 3 (UniProt Q14669) | inactive: 0.056
TPD52L2 isoform 3 (UniProt O43399) | inactive: 0.022
TRMT5 (UniProt Q32P41) | inactive: -0.172
TRAPPC2 isoform 3 (UniProt P0DI81) | inactive: -0.117
TRMT2B (UniProt Q96GJ1) | inactive: 0.088

compound: Cc1cc(SCc2sc(-c3ccc(C(F)(F)F)cc3)nc2C)ccc1OCC(=O)O; experiment: as above
How it was run: as §1

Target | log2 fold change
TRIM5 (UniProt Q9C035) | inactive: -0.127
TRAF3IP1 (UniProt Q8TDR0) | inactive: -0.123
TRIM65 (UniProt Q6PJ69) | inactive: -0.301
TNK2 isoform 3 (UniProt Q07912) | inactive: -0.017
TSC1 (UniProt Q92574) | inactive: 0.117
TNKS (UniProt O95271) | inactive: 0.135
TRIM21 (UniProt P19474) | inactive: 0.102
TNIK isoform 3 (UniProt Q9UKE5) | inactive: 0.019
TRADD (UniProt Q15628) | inactive: 0.098
TRPM4 (UniProt Q8TD43) | inactive: 0.171
TRIP12 isoform 3 (UniProt Q14669) | inactive: 0.074
TRAPPC2 isoform 3 (UniProt P0DI81) | inactive: 0.026
TPD52 isoform 3 (UniProt P55327) | inactive: -0.218
TRMT2B (UniProt Q96GJ1) | inactive: 0.051

compound: Cc1ccc(-n2nc(C(C)(C)C)cc2NC(=O)Nc2ccc(OCCN3CCOCC3)c3ccccc23)cc1 [doramapimod]; experiment: as above
How it was run: as §1

Target | log2 fold change
TRAF3IP1 (UniProt Q8TDR0) | inactive: 0.085
TRIM65 (UniProt Q6PJ69) | inactive: 0.049
TSC1 (UniProt Q92574) | inactive: 0
TNKS (UniProt O95271) | inactive: 0.046
TNIK isoform 3 (UniProt Q9UKE5) | inactive: 0.098
TNXB isoform 4 (UniProt P22105) | inactive: 0.037
TRIP12 isoform 3 (UniProt Q14669) | inactive: 0.004
TRMT5 (UniProt Q32P41) | inactive: 0.147
TRIT1 (UniProt Q9H3H1) | inactive: 0.08

compound: Cc1ccc(C(=O)N(CCCN)[C@@H](c2nc3cc(Cl)ccc3c(=O)n2Cc2ccccc2)C(C)C)cc1 [ispinesib]; experiment: as above
How it was run: as §1

Target | log2 fold change
TRIM5 (UniProt Q9C035) | active: -0.821
TRAF3IP1 (UniProt Q8TDR0) | inactive: -0.101
TRIM65 (UniProt Q6PJ69) | inactive: -0.101
TSC1 (UniProt Q92574) | inactive: -0.254
TRAF3 (UniProt Q13114) | inactive: 0.2
TNIK isoform 3 (UniProt Q9UKE5) | inactive: -0.118
TRADD (UniProt Q15628) | inactive: 0.033
TPRG1L (UniProt Q5T0D9) | inactive: -0.149
TNIP1 (UniProt Q15025) | inactive: 0.007
TRIP12 isoform 3 (UniProt Q14669) | inactive: 0.137
TROAP (UniProt Q12815) | inactive: -0.267
TRAPPC2 isoform 3 (UniProt P0DI81) | inactive: -0.094
TRMT2B (UniProt Q96GJ1) | inactive: 0.016
TOR1AIP2 (UniProt Q9H496) | inactive: 0.084
